This is an account of results in article PMC9995496, “A screen for MeCP2-TBL1 interaction inhibitors using a luminescence-based assay” (Scientific Reports, 2023).

This experiment deals with PRKACA-PRKAR2A interaction (SmBiT-PRKACA / LgBiT-PRKAR2A), protein kinase A. On the set-up: NanoLuc complementation counter-screen in cell extract, PRKACA with PRKAR2A, loss of luminescence, detects NanoLuc interference. To be noted: counter-screen for NanoLuc interference; 0.5 h, 20 µM; inhibitor.

Molecules are shown by their SMILES.

As for `CN1C[C@@H]2c3ccccc3Oc3ccc(Cl)cc3[C@H]2C1` (racemic) [UM0141861:01, Asenapine], the “Inh (PKA)” value is listed as 11.75%.

As for `O=C(CCCCCCC(=O)Nc1ccccc1)NO` [UM0128550:04, Vorinostat (SAHA, MK0683)], the “Inh (PKA)” value is 3.557%.

In the case of `CCS(=O)(=O)N1CC(CC#N)(n2cc(-c3ncnc4[nH]ccc34)cn2)C1` [UM0141730:01, Baricitinib (LY3009104, INCB028050)], the “Inh (PKA)” value worked out at 10.91%.

On to `CN[C@@H]1C[C@H]2O[C@@](C)([C@@H]1OC)n1c3ccccc3c3c4c(c5c6ccccc6n2c5c31)C(=O)NC4` [UM0141941:01, Staurosporine], for which the “Inh (PKA)” value is listed as 55.13%.

`CNC(=O)c1ccccc1Sc1ccc2c(/C=C/c3ccccn3)n[nH]c2c1` [UM0142019:01, Axitinib (AG 013736)]: the “Inh (PKA)” value stood at 16.49%.
